Experimental data from paper doi:10.1101/641977.

Chains of the proteins cited; added tags and fusions are not shown. Lines headed by an entry give the natural chain unless they say otherwise; changes in a name come on top. A line that says so, or that is headed by a name, gives the form on record, which may keep a tag or linker.
FLAG-EZH2 (enhancer of zeste homolog 2), stably expressed in A375 cells (Q15910, form named): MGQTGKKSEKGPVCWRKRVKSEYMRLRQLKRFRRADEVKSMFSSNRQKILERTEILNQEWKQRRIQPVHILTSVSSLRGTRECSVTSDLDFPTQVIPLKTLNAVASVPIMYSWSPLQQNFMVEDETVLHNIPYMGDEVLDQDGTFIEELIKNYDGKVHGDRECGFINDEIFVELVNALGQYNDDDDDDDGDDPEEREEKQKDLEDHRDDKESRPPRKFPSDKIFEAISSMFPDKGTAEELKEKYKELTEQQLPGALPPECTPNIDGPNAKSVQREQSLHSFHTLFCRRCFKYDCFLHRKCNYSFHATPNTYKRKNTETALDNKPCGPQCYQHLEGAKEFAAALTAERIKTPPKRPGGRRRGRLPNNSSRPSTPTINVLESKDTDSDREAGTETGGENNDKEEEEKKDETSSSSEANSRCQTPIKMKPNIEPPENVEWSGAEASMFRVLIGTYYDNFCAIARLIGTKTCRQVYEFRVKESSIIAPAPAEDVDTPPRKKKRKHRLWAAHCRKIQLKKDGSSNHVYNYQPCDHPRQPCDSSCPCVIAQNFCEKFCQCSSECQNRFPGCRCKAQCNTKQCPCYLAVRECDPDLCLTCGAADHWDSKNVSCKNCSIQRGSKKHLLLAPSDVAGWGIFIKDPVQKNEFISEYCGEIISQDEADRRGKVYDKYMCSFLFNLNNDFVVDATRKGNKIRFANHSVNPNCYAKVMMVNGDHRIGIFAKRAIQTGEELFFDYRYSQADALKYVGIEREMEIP
UniProt Q01082: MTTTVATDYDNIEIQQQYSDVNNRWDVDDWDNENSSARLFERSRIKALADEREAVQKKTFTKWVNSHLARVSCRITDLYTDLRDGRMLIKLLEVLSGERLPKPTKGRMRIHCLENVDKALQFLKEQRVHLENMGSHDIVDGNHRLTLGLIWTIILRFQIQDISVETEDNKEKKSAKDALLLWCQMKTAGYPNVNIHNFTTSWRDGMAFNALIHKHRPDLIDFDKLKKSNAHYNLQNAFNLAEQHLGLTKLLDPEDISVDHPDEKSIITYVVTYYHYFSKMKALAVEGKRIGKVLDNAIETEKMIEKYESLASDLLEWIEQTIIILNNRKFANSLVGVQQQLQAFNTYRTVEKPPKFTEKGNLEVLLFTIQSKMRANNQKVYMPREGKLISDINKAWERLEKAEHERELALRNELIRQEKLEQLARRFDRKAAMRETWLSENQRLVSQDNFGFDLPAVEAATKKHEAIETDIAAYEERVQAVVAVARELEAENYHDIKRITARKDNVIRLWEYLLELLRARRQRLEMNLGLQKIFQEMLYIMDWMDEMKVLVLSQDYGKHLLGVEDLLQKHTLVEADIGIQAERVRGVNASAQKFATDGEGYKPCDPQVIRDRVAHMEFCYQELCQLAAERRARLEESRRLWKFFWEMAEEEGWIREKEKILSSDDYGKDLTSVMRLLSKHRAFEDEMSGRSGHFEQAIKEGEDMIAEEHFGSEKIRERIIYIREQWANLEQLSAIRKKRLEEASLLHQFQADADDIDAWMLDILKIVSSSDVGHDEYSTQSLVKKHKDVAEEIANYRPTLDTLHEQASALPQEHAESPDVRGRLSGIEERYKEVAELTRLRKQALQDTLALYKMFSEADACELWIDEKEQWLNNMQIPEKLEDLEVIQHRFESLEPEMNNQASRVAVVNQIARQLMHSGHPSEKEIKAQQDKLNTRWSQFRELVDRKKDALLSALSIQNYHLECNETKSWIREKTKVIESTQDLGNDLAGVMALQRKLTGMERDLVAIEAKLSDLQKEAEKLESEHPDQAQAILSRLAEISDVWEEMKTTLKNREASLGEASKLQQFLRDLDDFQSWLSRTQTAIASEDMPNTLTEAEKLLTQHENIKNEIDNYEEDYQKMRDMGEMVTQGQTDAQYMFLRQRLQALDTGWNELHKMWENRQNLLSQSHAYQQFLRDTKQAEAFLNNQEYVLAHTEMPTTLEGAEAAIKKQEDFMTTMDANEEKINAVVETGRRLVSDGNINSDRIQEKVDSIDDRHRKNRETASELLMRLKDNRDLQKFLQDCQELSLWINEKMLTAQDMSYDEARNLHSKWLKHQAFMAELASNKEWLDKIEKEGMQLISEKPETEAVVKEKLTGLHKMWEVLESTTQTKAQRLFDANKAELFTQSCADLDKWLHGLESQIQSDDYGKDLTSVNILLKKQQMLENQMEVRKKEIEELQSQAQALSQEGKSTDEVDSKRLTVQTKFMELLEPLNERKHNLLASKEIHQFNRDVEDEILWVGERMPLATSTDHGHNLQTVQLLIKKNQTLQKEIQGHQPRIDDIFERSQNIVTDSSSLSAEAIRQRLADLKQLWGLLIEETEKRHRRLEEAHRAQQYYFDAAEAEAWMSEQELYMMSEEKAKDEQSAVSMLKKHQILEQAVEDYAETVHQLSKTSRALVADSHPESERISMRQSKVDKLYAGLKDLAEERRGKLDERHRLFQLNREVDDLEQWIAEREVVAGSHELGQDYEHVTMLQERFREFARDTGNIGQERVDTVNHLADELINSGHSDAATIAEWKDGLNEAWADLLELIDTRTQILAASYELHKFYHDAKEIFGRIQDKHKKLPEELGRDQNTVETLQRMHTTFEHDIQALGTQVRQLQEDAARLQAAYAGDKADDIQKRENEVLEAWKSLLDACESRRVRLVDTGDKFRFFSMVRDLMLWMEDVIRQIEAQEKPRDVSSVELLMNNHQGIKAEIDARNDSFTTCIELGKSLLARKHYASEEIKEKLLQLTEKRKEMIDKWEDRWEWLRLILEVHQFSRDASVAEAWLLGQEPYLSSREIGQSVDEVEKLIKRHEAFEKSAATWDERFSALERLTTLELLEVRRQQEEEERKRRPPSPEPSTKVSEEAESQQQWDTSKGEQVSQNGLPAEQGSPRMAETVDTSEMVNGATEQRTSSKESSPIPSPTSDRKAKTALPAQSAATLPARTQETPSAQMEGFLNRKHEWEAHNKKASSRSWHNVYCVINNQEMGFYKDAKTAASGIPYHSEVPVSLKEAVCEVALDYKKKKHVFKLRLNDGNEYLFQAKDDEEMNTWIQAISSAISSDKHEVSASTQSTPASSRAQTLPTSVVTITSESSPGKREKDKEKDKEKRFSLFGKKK
UniProt Q93009: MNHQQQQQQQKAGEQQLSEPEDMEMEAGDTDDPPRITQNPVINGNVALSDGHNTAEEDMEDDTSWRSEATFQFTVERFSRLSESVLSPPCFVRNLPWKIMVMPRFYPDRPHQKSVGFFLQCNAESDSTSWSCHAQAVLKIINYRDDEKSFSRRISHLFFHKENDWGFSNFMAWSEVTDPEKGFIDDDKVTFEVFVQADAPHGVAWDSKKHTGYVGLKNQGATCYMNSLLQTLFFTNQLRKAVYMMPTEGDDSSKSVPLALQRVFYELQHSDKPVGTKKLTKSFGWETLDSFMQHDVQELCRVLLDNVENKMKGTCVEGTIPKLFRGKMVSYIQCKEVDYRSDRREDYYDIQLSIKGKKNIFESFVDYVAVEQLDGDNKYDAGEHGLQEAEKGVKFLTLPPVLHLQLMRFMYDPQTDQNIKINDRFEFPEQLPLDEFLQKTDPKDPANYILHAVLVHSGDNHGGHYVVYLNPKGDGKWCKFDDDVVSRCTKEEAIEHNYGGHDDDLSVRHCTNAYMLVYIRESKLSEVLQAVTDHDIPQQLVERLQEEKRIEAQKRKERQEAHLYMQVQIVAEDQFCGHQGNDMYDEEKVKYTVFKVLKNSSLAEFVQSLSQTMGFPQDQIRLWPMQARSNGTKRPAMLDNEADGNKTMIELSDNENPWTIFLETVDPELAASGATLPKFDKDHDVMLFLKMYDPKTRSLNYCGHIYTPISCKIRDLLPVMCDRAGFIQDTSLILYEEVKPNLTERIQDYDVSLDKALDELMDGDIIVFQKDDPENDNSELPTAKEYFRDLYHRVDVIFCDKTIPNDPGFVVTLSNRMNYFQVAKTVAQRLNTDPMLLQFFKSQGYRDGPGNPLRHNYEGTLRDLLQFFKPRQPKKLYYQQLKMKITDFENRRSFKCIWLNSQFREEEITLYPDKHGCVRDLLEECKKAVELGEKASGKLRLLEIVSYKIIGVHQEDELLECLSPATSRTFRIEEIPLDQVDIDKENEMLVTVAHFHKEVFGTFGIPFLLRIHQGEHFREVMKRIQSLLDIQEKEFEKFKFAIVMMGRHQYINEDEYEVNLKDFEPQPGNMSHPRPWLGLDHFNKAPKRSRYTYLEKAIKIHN

B1: OGT, endogenous (protein, UniProt O15294 1-1046)
chain: MASSVGNVADSTEPTKRMLSFQGLAELAHREYQAGDFEAAERHCMQLWRQEPDNTGVLLLLSSIHFQCRRLDRSAHFSTLAIKQNPLLAEAYSNLGNVYKERGQLQEAIEHYRHALRLKPDFIDGYINLAAALVAAGDMEGAVQAYVSALQYNPDLYCVRSDLGNLLKALGRLEEAKACYLKAIETQPNFAVAWSNLGCVFNAQGEIWLAIHHFEKAVTLDPNFLDAYINLGNVLKEARIFDRAVAAYLRALSLSPNHAVVHGNLACVYYEQGLIDLAIDTYRRAIELQPHFPDAYCNLANALKEKGSVAEAEDCYNTALRLCPTHADSLNNLANIKREQGNIEEAVRLYRKALEVFPEFAAAHSNLASVLQQQGKLQEALMHYKEAIRISPTFADAYSNMGNTLKEMQDVQGALQCYTRAIQINPAFADAHSNLASIHKDSGNIPEAIASYRTALKLKPDFPDAYCNLAHCLQIVCDWTDYDERMKKLVSIVADQLEKNRLPSVHPHHSMLYPLSHGFRKAIAERHGNLCLDKINVLHKPPYEHPKDLKLSDGRLRVGYVSSDFGNHPTSHLMQSIPGMHNPDKFEVFCYALSPDDGTNFRVKVMAEANHFIDLSQIPCNGKAADRIHQDGIHILVNMNGYTKGARNELFALRPAPIQAMWLGYPGTSGALFMDYIITDQETSPAEVAEQYSEKLAYMPHTFFIGDHANMFPHLKKKAVIDFKSNGHIYDNRIVLNGIDLKAFLDSLPDVKIVKMKCPDGGDNADSSNTALNMPVIPMNTIAEAVIEMINRGQIQITINGFSISNGLATTQINNKAATGEEVPRTIIVTTRSQYGLPEDAIVYCNFNQLYKIDPSTLQMWANILKRVPNSVLWLLRFPAVGEPNIQQYAQNMGLPQNRIIFSPVAPKEEHVRRGQLADVCLDTPLCNGHTTGMDVLWAGTPMVTMPGETLASRVAASQLTCLGCLELIAKNRQEYEDIAVKLGTDLEYLKKVRGKVWKQRISSPLFNTKQYTMELERLYLQMWEHYAAGNKPDHMIKPVEVTESA

Molecular target: FLAG-EZH2 (enhancer of zeste homolog 2), stably expressed in A375 cells (UniProt Q15910)
Assay: affinity purification with mass spectrometry

binding, binds:
SPTBN1, endogenous (from UniProt Q01082 1-2364)
ubiquitin-specific protease 7 (USP7), endogenous (from UniProt Q93009 1-1102) (enzyme)
B1

Results are given in words; binding and its absence hold for the method and conditions named. In cells and extracts the contact can be indirect. Here binding means that the protein was enriched with, or labelled near, the bait; the list need not be complete.
